Results on 30 sequences are retold here after PubChem BioAssay AID1347426 (Functional Genomics Laboratory (NCATS/FGL), 2020).

In all, about 31,000 sequences went through this assay and about 1,400 (4.5%) were called active.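 Rule for the calls: active = median seed-adjusted z-score above 1 or below -1; inactive = the rest.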 The list shows a part of the results.

The nature of this test: Novel Modifiers of Survival Motor Neuron (SMN) Protein: Gene Identification via Genome-wide siRNA Screen.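 Note: luminescence tracks full-length SMN protein made from the SMN2 reporter.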 Conditions: HEK293T SMN2-luciferase reporter, siRNA knockdown, 72 h; actives lie on both sides. In short, it runs like this:
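HEK293T cells stably carrying an SMN2 promoter/splicing cassette–luciferase reporter were reverse-transfected with 1 pmol siRNA per well (druggable-genome library, 3 siRNAs per gene) and grown 72 h at 37 °C. Luminescence, normalized to negative-control siRNA and log10-transformed, was scored as MAD.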
For GCAGCUCCGAAUUCAGGAATT against TFE3, the median seed-adjusted z-score is inactive: -0.0442. ACAGAGAGCUGUUACUAGATT against GPLD1: the median seed-adjusted z-score is inactive: 0.0152. In the case of GCUCAACUCUUAUACGACATT against ZNF582, the median seed-adjusted z-score was inactive: -0.421. With GGAAAGGACGCAUGGAAUATT against CBX8, the median seed-adjusted z-score was inactive: -0.207.

As to GUCUCCGAUCUGUCCCUGATT against SCRT2, the median seed-adjusted z-score was inactive: 0.404. Take GCAGCUUCACCUAUCCGAUTT against KLF4: the median seed-adjusted z-score is inactive: 0.883. For the sequence GGUGUUUAAUGAUGUAGAUTT against UBA3, the median seed-adjusted z-score is inactive: 0.605. Regarding CAACAGCAGUGAAUUGAAATT against BMP6, the median seed-adjusted z-score was inactive: 0.301. As for CCUGAGGACGGGUCAGAUATT against ZNF517, the median seed-adjusted z-score was inactive: 0.0158. With GGUCGAGGACUAUUUCUUUTT against NOS2A, the median seed-adjusted z-score is inactive: 0.419. The result for GAGUGAACAUUCUCAUAAATT against CUX2 reads inactive: 0; that for CUGCUUAUGUCGUAUCUAATT against PGAP1, inactive: -0.272; that for GGAGAAGAACCAUCAGAAUTT against PGRMC2, inactive: -0.223.

Consider GUCUGAUAGAGCAAAGGUATT against FAM98B, for which the median seed-adjusted z-score is inactive: -0.0162. With GGAUAGUAAUUGUUGAGGATT against CNTN5, the median seed-adjusted z-score was inactive: -0.236. Regarding CAUAUAGCAUUGACUCAAATT against ZNF596, the median seed-adjusted z-score is inactive: 0.486. Take CCACAACUCUUGAACAUCATT against EIF3I: the median seed-adjusted z-score is inactive: -0.0445. The figure for CCAUUAUGGUGUCAUUACATT against RORA is inactive: -0.144. The figure for CCAUAGUCUUCAUCUACGATT against GPR153 is active: -1.08; for AAACUGAUGCGUUCAGAUATT against MBNL3 it is inactive: -0.189. Regarding CCUACAUCAGGAAUACUAATT against GALNTL1, the median seed-adjusted z-score is inactive: -0.234. The figure for CUAGAGGUGUCAGAACGAATT against PRKAR2A is inactive: 0.213.

Take GGCUAUUGGUCUUAGACGATT against GPR85: the median seed-adjusted z-score is inactive: 0.0452. For the sequence GCAAUUACCAGUGAUAACATT against SEC24B, the median seed-adjusted z-score is inactive: -0.493. In the case of CCUUCAUUGUUGAUCGUUATT against FAT4, the median seed-adjusted z-score is inactive: -0.363. The result for GGCCUGUACCUGCUACAAATT against EPPK1 reads inactive: 0.786; that for GGUGCUAACCGGAUAGUAUTT against LRP6, inactive: -0.116; that for CAACGAUUCUUCUUCAAAATT against STAT4, inactive: 0.734. On to GGACGUACUGGACAGUGAATT against USP27X, for which the median seed-adjusted z-score was inactive: 0.43. Regarding GGAGCUCGAUGAAAUCCGATT against CALN1, the median seed-adjusted z-score is inactive: 0.0753.
